Experimental data reported in patent publication US20070293425A1.

Tests used:
[1] = target: Activin receptor II ectodomain; assay: BIAcore, immobilised ARII ectodomain
[2] = target: Gremlin; assay: BIAcore, immobilised Gremlin
[3] = target: Activin receptor II ectodomain; assay: BIAcore SPR, Activin receptor II ectodomain immobilised, analyte at 120 nM, response normalised to saturating BMP-2 = 100 %

Measured: binding

B1: BMP-2 D53P (ligand)
chain: QAKHKQRKRLKSSCKRHPLYVDFSDVGWNDWIVAPPGYHAFYCHGECPFPLAPHLNSTNHAIVQTLVNSVNSKIPKACCVPTELSAISMLYLDENEKVVLKNYQDMVVEGCGCR
binds: all assays above

B2: BMP-2 L51P (ligand)
chain: B1 chain with L51P, P53D
binds: all assays above

Changes are numbered by the printed parent chain. Names may count otherwise. No constants are given. Whether binding was seen depends on the method and setting. Binding can be weak; no strength is given.
